These results are taken from paper PMC10196724.

By UniProt entry, the sequences of proteins in these tests, tags left out.
UniProt P49840: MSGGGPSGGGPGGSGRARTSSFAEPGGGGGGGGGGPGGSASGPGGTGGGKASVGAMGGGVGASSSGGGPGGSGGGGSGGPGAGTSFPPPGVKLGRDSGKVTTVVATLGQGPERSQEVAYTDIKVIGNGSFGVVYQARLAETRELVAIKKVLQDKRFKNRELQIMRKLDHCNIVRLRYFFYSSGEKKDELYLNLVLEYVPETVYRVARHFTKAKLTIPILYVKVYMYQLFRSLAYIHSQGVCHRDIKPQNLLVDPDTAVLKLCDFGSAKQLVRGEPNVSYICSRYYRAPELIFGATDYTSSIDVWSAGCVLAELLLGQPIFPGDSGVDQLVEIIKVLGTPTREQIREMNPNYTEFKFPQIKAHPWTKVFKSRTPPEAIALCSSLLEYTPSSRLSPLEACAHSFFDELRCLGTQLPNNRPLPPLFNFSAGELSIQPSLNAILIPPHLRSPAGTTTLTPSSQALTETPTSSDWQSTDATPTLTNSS
UniProt P49841: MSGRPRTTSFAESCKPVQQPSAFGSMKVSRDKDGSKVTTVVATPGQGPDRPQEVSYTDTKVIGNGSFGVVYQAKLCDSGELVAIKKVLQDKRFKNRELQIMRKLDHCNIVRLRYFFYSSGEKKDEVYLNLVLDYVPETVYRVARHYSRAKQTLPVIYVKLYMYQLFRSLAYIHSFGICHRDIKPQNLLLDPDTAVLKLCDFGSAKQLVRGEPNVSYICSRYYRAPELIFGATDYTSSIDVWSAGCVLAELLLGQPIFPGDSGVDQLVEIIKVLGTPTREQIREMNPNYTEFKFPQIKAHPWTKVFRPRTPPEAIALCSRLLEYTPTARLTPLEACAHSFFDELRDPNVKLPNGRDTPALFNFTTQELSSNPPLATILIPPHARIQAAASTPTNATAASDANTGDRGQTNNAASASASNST
UniProt O95793: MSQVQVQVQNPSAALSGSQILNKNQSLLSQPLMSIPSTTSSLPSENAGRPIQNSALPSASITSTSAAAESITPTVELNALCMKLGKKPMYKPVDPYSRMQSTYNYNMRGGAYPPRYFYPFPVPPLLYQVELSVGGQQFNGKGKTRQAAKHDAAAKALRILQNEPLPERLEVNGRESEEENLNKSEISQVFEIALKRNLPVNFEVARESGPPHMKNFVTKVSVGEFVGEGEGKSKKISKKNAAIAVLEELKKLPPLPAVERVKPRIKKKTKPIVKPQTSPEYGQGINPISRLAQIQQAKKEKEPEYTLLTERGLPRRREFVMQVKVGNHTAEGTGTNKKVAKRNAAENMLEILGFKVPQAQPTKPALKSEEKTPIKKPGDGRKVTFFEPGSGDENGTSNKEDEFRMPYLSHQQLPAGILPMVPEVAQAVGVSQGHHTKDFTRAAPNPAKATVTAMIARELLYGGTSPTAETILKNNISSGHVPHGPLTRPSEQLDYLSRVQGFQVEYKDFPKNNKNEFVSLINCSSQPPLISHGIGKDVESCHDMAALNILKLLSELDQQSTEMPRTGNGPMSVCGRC
UniProt Q9NYF8: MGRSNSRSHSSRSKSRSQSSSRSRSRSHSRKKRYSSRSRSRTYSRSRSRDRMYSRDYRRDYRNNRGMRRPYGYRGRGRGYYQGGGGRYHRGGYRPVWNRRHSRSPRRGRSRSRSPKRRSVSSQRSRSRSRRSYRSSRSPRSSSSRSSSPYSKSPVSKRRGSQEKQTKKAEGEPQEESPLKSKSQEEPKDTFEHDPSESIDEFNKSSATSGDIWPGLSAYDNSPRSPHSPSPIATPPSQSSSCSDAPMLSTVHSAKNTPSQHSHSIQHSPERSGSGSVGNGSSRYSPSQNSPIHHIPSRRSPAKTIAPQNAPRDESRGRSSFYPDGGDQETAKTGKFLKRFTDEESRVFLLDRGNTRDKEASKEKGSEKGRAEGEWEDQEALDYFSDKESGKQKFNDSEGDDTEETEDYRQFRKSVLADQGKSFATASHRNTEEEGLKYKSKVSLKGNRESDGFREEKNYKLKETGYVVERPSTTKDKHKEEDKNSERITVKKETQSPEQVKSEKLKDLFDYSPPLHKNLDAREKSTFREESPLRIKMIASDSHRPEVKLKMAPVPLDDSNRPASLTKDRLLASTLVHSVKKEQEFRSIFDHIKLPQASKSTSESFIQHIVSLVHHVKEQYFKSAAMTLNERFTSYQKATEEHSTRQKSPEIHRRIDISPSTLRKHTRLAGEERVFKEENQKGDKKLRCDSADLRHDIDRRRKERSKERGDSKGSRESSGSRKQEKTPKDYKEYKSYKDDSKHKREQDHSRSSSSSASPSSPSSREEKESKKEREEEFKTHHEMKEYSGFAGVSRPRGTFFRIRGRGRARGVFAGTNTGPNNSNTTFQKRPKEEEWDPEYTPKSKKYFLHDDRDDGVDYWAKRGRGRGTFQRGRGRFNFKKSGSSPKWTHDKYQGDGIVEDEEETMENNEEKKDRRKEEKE

For one assay, the target named is GSK3α-Flag (human) (UniProt P49840). Description: affinity purification with mass spectrometry; GSK3A-Flag or GSK3B-Flag overexpressed in 293T; lysis in 25 mM Tris-HCl, 150 mM NaCl, 1% NP-40, 5% glycerol, pH 7.4; pulled down with anti-Flag magnetic beads; label-free LC-MS/MS, 3 replicates; binding proteins: ratio to control >1.5, p < 0.05, or only identified in the overexpression group.

For a further assay, the target named is GSK3β-Flag (human) (UniProt P49841). Described as above.

No constants are given. Whether binding was seen depends on the method and setting. Binding seen in cells or lysates may run through a third protein. Here binding means that the protein was enriched with, or labelled near, the bait; the list need not be complete. For part of these data: No binding means not detected with the bait.

For the molecule STAU1 (from UniProt O95793 1-577), the results for the binding entry in the assay with GSK3α-Flag (human) and with GSK3β-Flag (human) were “binds” and “no binding”, respectively.
For BCLAF1 (from UniProt Q9NYF8 1-920), in that order: “binds” and “no binding”.

B1: THRAP3 (protein, UniProt Q9Y2W1 1-955)
chain: MSKTNKSKSGSRSSRSRSASRSRSRSFSKSRSRSRSLSRSRKRRLSSRSRSRSYSPAHNRERNHPRVYQNRDFRGHNRGYRRPYYFRGRNRGFYPWGQYNRGGYGNYRSNWQNYRQAYSPRRGRSRSRSPKRRSPSPRSRSHSRNSDKSSSDRSRRSSSSRSSSNHSRVESSKRKSAKEKKSSSKDSRPSQAAGDNQGDEAKEQTFSGGTSQDTKASESSKPWPDATYGTGSASRASAVSELSPRERSPALKSPLQSVVVRRRSPRPSPVPKPSPPLSSTSQMGSTLPSGAGYQSGTHQGQFDHGSGSLSPSKKSPVGKSPPSTGSTYGSSQKEESAASGGAAYTKRYLEEQKTENGKDKEQKQTNTDKEKIKEKGSFSDTGLGDGKMKSDSFAPKTDSEKPFRGSQSPKRYKLRDDFEKKMADFHKEEMDDQDKDKAKGRKESEFDDEPKFMSKVIGANKNQEEEKSGKWEGLVYAPPGKEKQRKTEELEEESFPERSKKEDRGKRSEGGHRGFVPEKNFRVTAYKAVQEKSSSPPPRKTSESRDKLGAKGDFPTGKSSFSITREAQVNVRMDSFDEDLARPSGLLAQERKLCRDLVHSNKKEQEFRSIFQHIQSAQSQRSPSELFAQHIVTIVHHVKEHHFGSSGMTLHERFTKYLKRGTEQEAAKNKKSPEIHRRIDISPSTFRKHGLAHDEMKSPREPGYKAEGKYKDDPVDLRLDIERRKKHKERDLKRGKSRESVDSRDSSHSRERSAEKTEKTHKGSKKQKKHRRARDRSRSSSSSSQSSHSYKAEEYTEETEEREESTTGFDKSRLGTKDFVGPSERGGGRARGTFQFRARGRGWGRGNYSGNNNNNSNNDFQKRNREEEWDPEYTPKSKKYYLHDDREGEGSDKWVSRGRGRGAFPRGRGRFMFRKSSTSPKWAHDKFSGEEGEIEDDESGTENREEKDNIQPTTE
Turning to B1, the binding entry is on record as “binds” in the assay with GSK3α-Flag (human) and “no binding” with GSK3β-Flag (human).
